Reference: the supplement of paper PMC12823440, “Inhibitors supercharge kinase turnover through native proteolytic circuits” (Nature, 2025)
The other results are listed elsewhere or left out. The calls rarely recur for the same compound in another form.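 Kinases, fused to nanoluciferase, were expressed in K562 cells; luminescence was measured every 4 h from 2 to 18 h as percent of control (DMSO = 100%, positive control = 0%). A time point is decreased if signal falls significantly (2 sigma). Hits were called by the authors by a rule that is not shown; the count of time points alone does not decide it.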

Amino acid sequences for entries named in this document (tags omitted). A change or cut given only in a name is not applied to a line headed by its entry.
UniProt Q01974, whole entry: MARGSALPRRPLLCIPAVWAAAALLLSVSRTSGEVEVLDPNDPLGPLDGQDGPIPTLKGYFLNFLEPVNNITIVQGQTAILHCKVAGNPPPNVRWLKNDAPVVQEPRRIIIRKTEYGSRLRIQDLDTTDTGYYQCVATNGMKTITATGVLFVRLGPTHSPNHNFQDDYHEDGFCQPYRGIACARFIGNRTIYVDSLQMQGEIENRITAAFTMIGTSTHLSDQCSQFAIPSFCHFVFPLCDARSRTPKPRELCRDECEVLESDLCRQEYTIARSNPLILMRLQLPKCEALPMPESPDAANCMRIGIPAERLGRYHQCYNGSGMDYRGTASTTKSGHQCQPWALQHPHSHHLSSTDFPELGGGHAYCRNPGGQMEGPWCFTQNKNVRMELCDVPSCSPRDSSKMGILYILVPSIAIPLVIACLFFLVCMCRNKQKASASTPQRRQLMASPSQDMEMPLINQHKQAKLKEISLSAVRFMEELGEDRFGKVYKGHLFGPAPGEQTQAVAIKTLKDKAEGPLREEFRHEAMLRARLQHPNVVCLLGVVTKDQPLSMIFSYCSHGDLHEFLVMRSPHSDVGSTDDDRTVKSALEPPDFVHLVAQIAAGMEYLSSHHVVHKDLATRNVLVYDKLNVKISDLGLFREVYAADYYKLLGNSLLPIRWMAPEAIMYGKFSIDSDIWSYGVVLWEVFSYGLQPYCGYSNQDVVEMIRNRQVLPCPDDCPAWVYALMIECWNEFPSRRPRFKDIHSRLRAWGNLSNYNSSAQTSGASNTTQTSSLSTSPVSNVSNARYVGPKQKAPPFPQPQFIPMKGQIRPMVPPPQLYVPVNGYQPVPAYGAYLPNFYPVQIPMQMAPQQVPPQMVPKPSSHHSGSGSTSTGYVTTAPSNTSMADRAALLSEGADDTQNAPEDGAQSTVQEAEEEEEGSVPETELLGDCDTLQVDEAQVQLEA
UniProt Q9NYA1, whole entry: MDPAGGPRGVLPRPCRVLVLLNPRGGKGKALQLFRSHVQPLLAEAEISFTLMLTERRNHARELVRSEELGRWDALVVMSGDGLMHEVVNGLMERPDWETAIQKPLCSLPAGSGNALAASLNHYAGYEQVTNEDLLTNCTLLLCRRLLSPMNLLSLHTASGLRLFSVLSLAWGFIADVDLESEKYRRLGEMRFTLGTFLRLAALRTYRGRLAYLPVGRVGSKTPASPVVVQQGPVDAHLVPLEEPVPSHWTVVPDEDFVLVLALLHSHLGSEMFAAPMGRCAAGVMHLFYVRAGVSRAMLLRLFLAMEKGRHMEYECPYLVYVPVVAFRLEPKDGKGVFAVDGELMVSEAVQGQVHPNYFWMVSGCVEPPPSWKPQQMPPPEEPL
UniProt Q9Y6E0: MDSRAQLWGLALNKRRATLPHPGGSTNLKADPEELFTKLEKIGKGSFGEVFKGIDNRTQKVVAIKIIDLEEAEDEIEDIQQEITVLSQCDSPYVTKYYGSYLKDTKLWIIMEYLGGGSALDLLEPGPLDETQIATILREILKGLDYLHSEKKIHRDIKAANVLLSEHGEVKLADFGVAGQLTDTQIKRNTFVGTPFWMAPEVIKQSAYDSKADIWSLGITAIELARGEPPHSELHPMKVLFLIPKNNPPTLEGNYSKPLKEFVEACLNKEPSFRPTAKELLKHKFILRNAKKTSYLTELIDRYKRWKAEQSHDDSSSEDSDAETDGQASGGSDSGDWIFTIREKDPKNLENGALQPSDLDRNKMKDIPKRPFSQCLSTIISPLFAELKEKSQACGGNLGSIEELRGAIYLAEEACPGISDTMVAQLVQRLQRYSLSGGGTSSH
UniProt Q15208: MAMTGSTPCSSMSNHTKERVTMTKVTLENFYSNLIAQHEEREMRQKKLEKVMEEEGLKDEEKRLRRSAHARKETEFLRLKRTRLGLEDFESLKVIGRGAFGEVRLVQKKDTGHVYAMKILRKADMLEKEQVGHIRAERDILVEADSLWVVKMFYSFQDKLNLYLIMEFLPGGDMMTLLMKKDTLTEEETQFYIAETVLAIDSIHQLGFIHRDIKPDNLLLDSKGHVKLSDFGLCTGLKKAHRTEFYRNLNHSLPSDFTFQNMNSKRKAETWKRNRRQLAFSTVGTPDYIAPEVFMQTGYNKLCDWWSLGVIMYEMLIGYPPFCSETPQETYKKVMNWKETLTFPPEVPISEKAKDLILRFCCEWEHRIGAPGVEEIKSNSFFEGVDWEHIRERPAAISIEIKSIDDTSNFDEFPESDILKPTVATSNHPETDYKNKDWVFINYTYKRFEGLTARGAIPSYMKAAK
UniProt P29597: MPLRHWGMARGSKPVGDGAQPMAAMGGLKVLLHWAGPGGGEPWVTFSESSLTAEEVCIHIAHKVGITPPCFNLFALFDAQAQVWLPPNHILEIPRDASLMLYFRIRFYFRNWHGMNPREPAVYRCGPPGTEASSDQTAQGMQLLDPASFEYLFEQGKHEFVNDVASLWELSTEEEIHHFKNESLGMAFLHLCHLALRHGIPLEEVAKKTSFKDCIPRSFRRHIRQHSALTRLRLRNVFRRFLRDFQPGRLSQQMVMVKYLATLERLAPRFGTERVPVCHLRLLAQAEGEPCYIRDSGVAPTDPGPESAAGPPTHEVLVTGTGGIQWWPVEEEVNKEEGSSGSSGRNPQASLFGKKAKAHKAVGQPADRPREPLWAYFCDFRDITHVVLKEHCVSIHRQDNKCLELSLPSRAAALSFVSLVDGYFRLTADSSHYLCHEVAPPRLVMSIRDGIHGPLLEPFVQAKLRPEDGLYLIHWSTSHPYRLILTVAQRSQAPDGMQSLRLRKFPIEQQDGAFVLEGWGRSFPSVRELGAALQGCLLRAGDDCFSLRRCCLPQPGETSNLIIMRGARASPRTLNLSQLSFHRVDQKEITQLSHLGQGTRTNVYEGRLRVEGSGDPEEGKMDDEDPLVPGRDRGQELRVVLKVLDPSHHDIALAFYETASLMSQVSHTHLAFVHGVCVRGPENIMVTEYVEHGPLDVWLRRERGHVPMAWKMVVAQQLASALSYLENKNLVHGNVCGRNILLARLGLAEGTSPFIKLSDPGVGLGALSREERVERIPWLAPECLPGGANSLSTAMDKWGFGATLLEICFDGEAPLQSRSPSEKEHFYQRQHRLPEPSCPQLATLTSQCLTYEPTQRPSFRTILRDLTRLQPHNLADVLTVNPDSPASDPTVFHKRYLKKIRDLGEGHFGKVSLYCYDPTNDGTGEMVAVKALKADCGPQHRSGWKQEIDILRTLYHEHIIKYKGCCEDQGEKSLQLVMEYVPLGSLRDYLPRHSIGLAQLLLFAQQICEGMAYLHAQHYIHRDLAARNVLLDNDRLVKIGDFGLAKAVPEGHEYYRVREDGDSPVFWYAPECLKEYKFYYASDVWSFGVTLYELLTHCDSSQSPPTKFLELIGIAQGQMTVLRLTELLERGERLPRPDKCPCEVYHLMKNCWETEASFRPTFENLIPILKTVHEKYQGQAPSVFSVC
UniProt P07947, whole entry, looked up: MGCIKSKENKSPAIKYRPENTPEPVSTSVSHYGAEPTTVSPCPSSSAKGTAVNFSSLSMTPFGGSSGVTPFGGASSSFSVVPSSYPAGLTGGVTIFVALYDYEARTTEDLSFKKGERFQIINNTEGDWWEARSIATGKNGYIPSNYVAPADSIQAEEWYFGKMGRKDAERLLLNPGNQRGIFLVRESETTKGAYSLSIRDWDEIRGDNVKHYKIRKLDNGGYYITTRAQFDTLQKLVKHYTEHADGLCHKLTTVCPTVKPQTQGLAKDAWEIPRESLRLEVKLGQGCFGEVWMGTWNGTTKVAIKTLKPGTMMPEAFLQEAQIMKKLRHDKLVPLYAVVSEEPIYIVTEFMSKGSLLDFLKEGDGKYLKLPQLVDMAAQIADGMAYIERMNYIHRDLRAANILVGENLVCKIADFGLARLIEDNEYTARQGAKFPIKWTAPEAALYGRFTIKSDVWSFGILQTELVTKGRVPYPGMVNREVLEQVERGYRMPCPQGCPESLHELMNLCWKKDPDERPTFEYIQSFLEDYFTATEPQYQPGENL
UniProt P43403: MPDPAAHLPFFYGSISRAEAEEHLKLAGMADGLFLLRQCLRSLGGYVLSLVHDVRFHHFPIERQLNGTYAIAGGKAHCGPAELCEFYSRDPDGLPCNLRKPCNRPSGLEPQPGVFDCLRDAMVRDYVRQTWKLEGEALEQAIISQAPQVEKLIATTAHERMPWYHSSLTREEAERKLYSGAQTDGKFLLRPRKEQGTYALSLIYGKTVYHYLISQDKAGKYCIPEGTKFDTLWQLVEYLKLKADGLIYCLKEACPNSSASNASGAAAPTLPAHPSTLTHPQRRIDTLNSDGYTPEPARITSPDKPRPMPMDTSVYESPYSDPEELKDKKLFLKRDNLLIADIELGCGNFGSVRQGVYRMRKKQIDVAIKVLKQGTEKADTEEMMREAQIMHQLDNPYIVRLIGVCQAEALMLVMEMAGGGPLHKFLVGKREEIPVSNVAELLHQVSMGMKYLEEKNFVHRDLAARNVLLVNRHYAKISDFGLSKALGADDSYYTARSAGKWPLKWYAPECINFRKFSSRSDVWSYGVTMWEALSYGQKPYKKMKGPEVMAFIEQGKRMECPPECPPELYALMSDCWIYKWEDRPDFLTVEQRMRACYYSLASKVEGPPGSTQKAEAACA
UniProt P00519, whole entry: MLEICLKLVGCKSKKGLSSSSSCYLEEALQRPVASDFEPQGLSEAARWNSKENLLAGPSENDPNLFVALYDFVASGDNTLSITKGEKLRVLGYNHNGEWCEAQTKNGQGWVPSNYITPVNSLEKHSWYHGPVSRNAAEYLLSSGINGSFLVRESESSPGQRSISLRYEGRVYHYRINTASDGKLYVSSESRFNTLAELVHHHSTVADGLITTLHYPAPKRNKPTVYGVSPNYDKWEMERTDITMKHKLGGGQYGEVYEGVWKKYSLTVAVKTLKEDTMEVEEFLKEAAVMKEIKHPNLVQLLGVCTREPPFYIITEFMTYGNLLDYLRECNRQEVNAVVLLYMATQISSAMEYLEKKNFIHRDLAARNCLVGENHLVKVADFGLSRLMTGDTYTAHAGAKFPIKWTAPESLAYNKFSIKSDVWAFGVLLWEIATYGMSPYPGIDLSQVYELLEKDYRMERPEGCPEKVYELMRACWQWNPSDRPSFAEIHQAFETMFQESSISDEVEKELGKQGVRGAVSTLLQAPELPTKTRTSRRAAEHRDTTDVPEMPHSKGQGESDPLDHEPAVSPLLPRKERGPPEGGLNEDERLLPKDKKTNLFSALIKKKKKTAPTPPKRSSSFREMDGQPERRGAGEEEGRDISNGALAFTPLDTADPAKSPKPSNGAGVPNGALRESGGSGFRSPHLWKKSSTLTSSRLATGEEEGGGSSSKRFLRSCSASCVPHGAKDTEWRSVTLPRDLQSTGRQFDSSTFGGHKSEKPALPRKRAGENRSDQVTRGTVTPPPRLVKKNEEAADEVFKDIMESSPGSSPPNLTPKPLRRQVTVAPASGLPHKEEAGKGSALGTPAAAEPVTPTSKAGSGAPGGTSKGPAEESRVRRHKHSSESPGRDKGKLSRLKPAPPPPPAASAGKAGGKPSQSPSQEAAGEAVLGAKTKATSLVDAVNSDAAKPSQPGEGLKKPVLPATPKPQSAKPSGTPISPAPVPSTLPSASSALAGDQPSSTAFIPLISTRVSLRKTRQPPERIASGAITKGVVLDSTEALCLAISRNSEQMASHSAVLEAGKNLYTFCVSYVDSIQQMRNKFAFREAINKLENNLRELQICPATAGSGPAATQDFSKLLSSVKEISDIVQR
UniProt P31749: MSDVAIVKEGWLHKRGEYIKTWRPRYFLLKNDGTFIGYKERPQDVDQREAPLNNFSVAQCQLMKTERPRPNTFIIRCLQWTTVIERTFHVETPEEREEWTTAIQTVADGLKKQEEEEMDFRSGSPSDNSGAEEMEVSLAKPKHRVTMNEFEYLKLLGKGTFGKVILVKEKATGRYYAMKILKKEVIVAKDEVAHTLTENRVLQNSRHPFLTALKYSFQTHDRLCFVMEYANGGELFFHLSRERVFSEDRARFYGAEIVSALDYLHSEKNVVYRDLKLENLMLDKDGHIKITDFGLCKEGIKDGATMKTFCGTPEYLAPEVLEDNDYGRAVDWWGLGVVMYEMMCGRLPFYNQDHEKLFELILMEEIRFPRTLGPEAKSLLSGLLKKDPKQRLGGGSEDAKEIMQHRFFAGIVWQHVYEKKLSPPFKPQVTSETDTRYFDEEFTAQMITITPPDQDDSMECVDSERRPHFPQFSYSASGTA

Experiments:
Details in all cases: K562; 2-18 h
[1] = target: RET (UniProt P07949); experiment: kinase-Nluc reporter destabilization hit call (1 = scored as downregulated) (binary); higher = compound decreases kinase abundance
[2] = target: RET_M918T (clone: RET_mut) (UniProt P07949); experiment: as above
[3] = target: RIOK1 (UniProt Q9BRS2); experiment: as above
[4] = target: RIPK1 (UniProt Q13546); experiment: as above
[5] = target: RIPK2 (UniProt O43353); experiment: as above
[6] = target: ROR2 (UniProt Q01974); experiment: as above
[7] = target: RPS6KA1 (UniProt Q15418); experiment: as above
[8] = target: SPHK1 (UniProt Q9NYA1); experiment: as above
[9] = target: SRC (UniProt P12931); experiment: as above
[10] = target: STK24 (UniProt Q9Y6E0); experiment: as above
[11] = target: STK38 (UniProt Q15208); experiment: as above
[12] = target: SYK (UniProt P43405); experiment: as above
[13] = target: TEC (UniProt P42680); experiment: as above
[14] = target: TYK2 (UniProt P29597); experiment: as above
[15] = target: ULK3 (UniProt Q6PHR2); experiment: as above
[16] = target: YES1 (UniProt P07947); experiment: as above
[17] = target: ZAK (UniProt Q9NYL2); experiment: as above
[18] = target: ZAP70 (UniProt P43403); experiment: as above
[19] = target: ABL1 (UniProt P00519); experiment: number of time points (of 5) at which kinase-Nluc abundance scored as decreased, DMSO-normalised (count); higher = more persistent destabilization
[20] = target: AKT1 (UniProt P31749); experiment: as above

O=c1oc2ccccc2c(O)c1Cc1c(O)c2ccccc2oc1=O [Dicoumarol] (10 µM)
inactive: kinase-Nluc reporter destabilization hit call [1] 0 | kinase-Nluc reporter destabilization hit call [2] 0 | kinase-Nluc reporter destabilization hit call [3] 0 | kinase-Nluc reporter destabilization hit call [4] 0 | kinase-Nluc reporter destabilization hit call [5] 0 | kinase-Nluc reporter destabilization hit call [6] 0 | kinase-Nluc reporter destabilization hit call [7] 0 | kinase-Nluc reporter destabilization hit call [8] 0 | kinase-Nluc reporter destabilization hit call [9] 0 | kinase-Nluc reporter destabilization hit call [10] 0 | kinase-Nluc reporter destabilization hit call [11] 0 | kinase-Nluc reporter destabilization hit call [12] 0 | kinase-Nluc reporter destabilization hit call [13] 0 | kinase-Nluc reporter destabilization hit call [14] 0 | kinase-Nluc reporter destabilization hit call [15] 0 | kinase-Nluc reporter destabilization hit call [16] 0 | kinase-Nluc reporter destabilization hit call [17] 0 | kinase-Nluc reporter destabilization hit call [18] 0
0: number of time points [19] | number of time points [20]

CC1(C)CC=C(c2nc(C3CC(C)(C)OC(C)(C)C3)ccc2NC(=O)c2nc(C#N)c[nH]2)CC1 [Edicotinib] (2.5 µM)
inactive: kinase-Nluc reporter destabilization hit call [1] 0 | kinase-Nluc reporter destabilization hit call [2] 0 | kinase-Nluc reporter destabilization hit call [3] 0 | kinase-Nluc reporter destabilization hit call [4] 0 | kinase-Nluc reporter destabilization hit call [5] 0 | kinase-Nluc reporter destabilization hit call [6] 0 | kinase-Nluc reporter destabilization hit call [7] 0 | kinase-Nluc reporter destabilization hit call [8] 0 | kinase-Nluc reporter destabilization hit call [9] 0 | kinase-Nluc reporter destabilization hit call [10] 0 | kinase-Nluc reporter destabilization hit call [11] 0 | kinase-Nluc reporter destabilization hit call [12] 0 | kinase-Nluc reporter destabilization hit call [13] 0 | kinase-Nluc reporter destabilization hit call [14] 0 | kinase-Nluc reporter destabilization hit call [15] 0 | kinase-Nluc reporter destabilization hit call [16] 0 | kinase-Nluc reporter destabilization hit call [17] 0 | kinase-Nluc reporter destabilization hit call [18] 0
0: number of time points [19] | number of time points [20]

Cc1[nH]c(/C=C2\C(=O)Nc3ccc(S(=O)(=O)Cc4c(Cl)cccc4Cl)cc32)c(C)c1C(=O)N1CCC[C@@H]1CN1CCCC1 (2.5 µM)
inactive: kinase-Nluc reporter destabilization hit call [1] 0 | kinase-Nluc reporter destabilization hit call [2] 0 | kinase-Nluc reporter destabilization hit call [3] 0 | kinase-Nluc reporter destabilization hit call [4] 0 | kinase-Nluc reporter destabilization hit call [5] 0 | kinase-Nluc reporter destabilization hit call [6] 0 | kinase-Nluc reporter destabilization hit call [7] 0 | kinase-Nluc reporter destabilization hit call [8] 0 | kinase-Nluc reporter destabilization hit call [9] 0 | kinase-Nluc reporter destabilization hit call [10] 0 | kinase-Nluc reporter destabilization hit call [11] 0 | kinase-Nluc reporter destabilization hit call [12] 0 | kinase-Nluc reporter destabilization hit call [13] 0 | kinase-Nluc reporter destabilization hit call [14] 0 | kinase-Nluc reporter destabilization hit call [15] 0 | kinase-Nluc reporter destabilization hit call [16] 0 | kinase-Nluc reporter destabilization hit call [17] 0 | kinase-Nluc reporter destabilization hit call [18] 0
0: number of time points [19] | number of time points [20]

CCCCNc1ncc(-c2ccc(CN3CCOCC3)cn2)c(NC2CCC(O)CC2)n1 (stereo not given) (10 µM)
0: number of time points [19] | number of time points [20]
inactive: kinase-Nluc reporter destabilization hit call [1] 0 | kinase-Nluc reporter destabilization hit call [2] 0 | kinase-Nluc reporter destabilization hit call [3] 0 | kinase-Nluc reporter destabilization hit call [4] 0 | kinase-Nluc reporter destabilization hit call [5] 0 | kinase-Nluc reporter destabilization hit call [6] 0 | kinase-Nluc reporter destabilization hit call [7] 0 | kinase-Nluc reporter destabilization hit call [8] 0 | kinase-Nluc reporter destabilization hit call [9] 0 | kinase-Nluc reporter destabilization hit call [10] 0 | kinase-Nluc reporter destabilization hit call [11] 0 | kinase-Nluc reporter destabilization hit call [12] 0 | kinase-Nluc reporter destabilization hit call [13] 0 | kinase-Nluc reporter destabilization hit call [14] 0 | kinase-Nluc reporter destabilization hit call [15] 0 | kinase-Nluc reporter destabilization hit call [16] 0 | kinase-Nluc reporter destabilization hit call [17] 0 | kinase-Nluc reporter destabilization hit call [18] 0

O=c1cc(N2CCOCC2)oc2c(-c3ccccc3)cccc12 (10 µM)
inactive: kinase-Nluc reporter destabilization hit call [1] 0 | kinase-Nluc reporter destabilization hit call [2] 0 | kinase-Nluc reporter destabilization hit call [3] 0 | kinase-Nluc reporter destabilization hit call [4] 0 | kinase-Nluc reporter destabilization hit call [5] 0 | kinase-Nluc reporter destabilization hit call [6] 0 | kinase-Nluc reporter destabilization hit call [7] 0 | kinase-Nluc reporter destabilization hit call [8] 0 | kinase-Nluc reporter destabilization hit call [9] 0 | kinase-Nluc reporter destabilization hit call [10] 0 | kinase-Nluc reporter destabilization hit call [11] 0 | kinase-Nluc reporter destabilization hit call [12] 0 | kinase-Nluc reporter destabilization hit call [13] 0 | kinase-Nluc reporter destabilization hit call [14] 0 | kinase-Nluc reporter destabilization hit call [15] 0 | kinase-Nluc reporter destabilization hit call [16] 0 | kinase-Nluc reporter destabilization hit call [17] 0 | kinase-Nluc reporter destabilization hit call [18] 0
0: number of time points [19] | number of time points [20]

CC(C)CC(=O)Nc1n[nH]c2c1CN(C(=O)C1CCN(C)CC1)C2(C)C (2.5 µM)
1: number of time points [19]
0: number of time points [20]
inactive: kinase-Nluc reporter destabilization hit call [1] 0 | kinase-Nluc reporter destabilization hit call [2] 0 | kinase-Nluc reporter destabilization hit call [3] 0 | kinase-Nluc reporter destabilization hit call [4] 0 | kinase-Nluc reporter destabilization hit call [5] 0 | kinase-Nluc reporter destabilization hit call [6] 0 | kinase-Nluc reporter destabilization hit call [7] 0 | kinase-Nluc reporter destabilization hit call [8] 0 | kinase-Nluc reporter destabilization hit call [9] 0 | kinase-Nluc reporter destabilization hit call [10] 0 | kinase-Nluc reporter destabilization hit call [11] 0 | kinase-Nluc reporter destabilization hit call [12] 0 | kinase-Nluc reporter destabilization hit call [13] 0 | kinase-Nluc reporter destabilization hit call [14] 0 | kinase-Nluc reporter destabilization hit call [15] 0 | kinase-Nluc reporter destabilization hit call [16] 0 | kinase-Nluc reporter destabilization hit call [17] 0 | kinase-Nluc reporter destabilization hit call [18] 0

N#C/C(=C\c1ccc(O)c(O)c1)C(=O)NCCCc1ccccc1 (10 µM)
inactive: kinase-Nluc reporter destabilization hit call [1] 0 | kinase-Nluc reporter destabilization hit call [2] 0 | kinase-Nluc reporter destabilization hit call [3] 0 | kinase-Nluc reporter destabilization hit call [4] 0 | kinase-Nluc reporter destabilization hit call [5] 0 | kinase-Nluc reporter destabilization hit call [6] 0 | kinase-Nluc reporter destabilization hit call [7] 0 | kinase-Nluc reporter destabilization hit call [8] 0 | kinase-Nluc reporter destabilization hit call [9] 0 | kinase-Nluc reporter destabilization hit call [10] 0 | kinase-Nluc reporter destabilization hit call [11] 0 | kinase-Nluc reporter destabilization hit call [12] 0 | kinase-Nluc reporter destabilization hit call [13] 0 | kinase-Nluc reporter destabilization hit call [14] 0 | kinase-Nluc reporter destabilization hit call [15] 0 | kinase-Nluc reporter destabilization hit call [16] 0 | kinase-Nluc reporter destabilization hit call [17] 0 | kinase-Nluc reporter destabilization hit call [18] 0
0: number of time points [19] | number of time points [20]

COCc1c(-c2ccc(NC(=O)Nc3cc(C(F)(F)F)ccc3F)c(F)c2)c2c(N)ncnn2c1CN1CCOCC1 (2.5 µM)
0: number of time points [19] | number of time points [20]
inactive: kinase-Nluc reporter destabilization hit call [1] 0 | kinase-Nluc reporter destabilization hit call [2] 0 | kinase-Nluc reporter destabilization hit call [3] 0 | kinase-Nluc reporter destabilization hit call [4] 0 | kinase-Nluc reporter destabilization hit call [5] 0 | kinase-Nluc reporter destabilization hit call [6] 0 | kinase-Nluc reporter destabilization hit call [7] 0 | kinase-Nluc reporter destabilization hit call [8] 0 | kinase-Nluc reporter destabilization hit call [9] 0 | kinase-Nluc reporter destabilization hit call [10] 0 | kinase-Nluc reporter destabilization hit call [11] 0 | kinase-Nluc reporter destabilization hit call [12] 0 | kinase-Nluc reporter destabilization hit call [13] 0 | kinase-Nluc reporter destabilization hit call [14] 0 | kinase-Nluc reporter destabilization hit call [15] 0 | kinase-Nluc reporter destabilization hit call [16] 0 | kinase-Nluc reporter destabilization hit call [17] 0 | kinase-Nluc reporter destabilization hit call [18] 0

CN1CCN(S(=O)(=O)c2ccc(-c3cnc(N)c(C(=O)Nc4cccnc4)n3)cc2)CC1 (10 µM)
inactive: kinase-Nluc reporter destabilization hit call [1] 0 | kinase-Nluc reporter destabilization hit call [2] 0 | kinase-Nluc reporter destabilization hit call [3] 0 | kinase-Nluc reporter destabilization hit call [4] 0 | kinase-Nluc reporter destabilization hit call [5] 0 | kinase-Nluc reporter destabilization hit call [6] 0 | kinase-Nluc reporter destabilization hit call [7] 0 | kinase-Nluc reporter destabilization hit call [8] 0 | kinase-Nluc reporter destabilization hit call [9] 0 | kinase-Nluc reporter destabilization hit call [10] 0 | kinase-Nluc reporter destabilization hit call [11] 0 | kinase-Nluc reporter destabilization hit call [12] 0 | kinase-Nluc reporter destabilization hit call [13] 0 | kinase-Nluc reporter destabilization hit call [14] 0 | kinase-Nluc reporter destabilization hit call [15] 0 | kinase-Nluc reporter destabilization hit call [16] 0 | kinase-Nluc reporter destabilization hit call [17] 0 | kinase-Nluc reporter destabilization hit call [18] 0
0: number of time points [19] | number of time points [20]
